Consider 68 sequences from PubChem BioAssay AID1508600 (Functional Genomics Laboratory (NCATS/FGL), 2020).

The whole screen tested about 53,000 sequences, of which about 3,700 (7%) were called active.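 The calls were made as follows: active = gene knockdowns whose robust z-score for IL-1 alpha signal is at least 2 or at most -2, so actives lie on both sides; inactive = the rest.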 The list shows a part of the results.

This test in a line: Components of the Cytosolic LPS Sensing Pathway: Gene Identification via Genome-wide siRNA Screen.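 Also: robust z of the log signal after scaling to non-targeting control siRNA wells of the plate.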 The settings on record: RAW264.7 macrophages, IL-1a HTRF, actives lie on both sides, screened at 100 nM (by protocol), cells primed 5 h with Pam3CSK4 first. The method, boiled down: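 Cells (RAW264.7, 1×10^4 per well) were transfected with siRNA at 100 nM and cultured 48h at 37 degrees C. Pam3CSK4 was added for 5 hours; LipidA transfection followed for 24 hour. IL-1a was then measured by HTRF.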
Consider GGUUCAGACUGCAUCAGGCTT against Ncan, for which the z-score was inactive: -1.03. GGACAUCUGGUUAUGAAUGTT against B3galt6: the z-score is inactive: -0.111. As for GGACGAAAUAACAGGCUAATT against Clec2d, the z-score is inactive: 1.83. Regarding GGAAACUGCUGAAAGGUUATT against Srbd1, the z-score was inactive: 0.611. GGGCAAGGAGACAGAAUUCTT against Fgf18: the z-score was inactive: 0.927. On to GGAGAUGGUCUCAUUAAGCTT against Psmd13, for which the z-score was inactive: -1.25. For GGUUAACUUCUGUUCCUGATT against Yipf4 the value was inactive: 1.28; for GUCUGGAUAUUUGACACUATT against Tmem60, inactive: -0.637; for GCCCUGAAUGUGAAUUUGUTT against Ass1, inactive: 0.437.

As for GGAAGACGAGUUCAUUGUGTT against Rassf2, the z-score was inactive: 0.3.

On to GCUGCCGACCAUACUUUCCTT against Psme4, for which the z-score is inactive: 0.103. In the case of CGGAGCAUUGGGACAAUUUTT against Olfr690 it was inactive: 1.1; in that of UCUGAUCACACUGUUUGGATT against Olfr832, inactive: 1.68. As for GGGAUUGAAAAGGUUAACCTT against Fam243, the z-score is inactive: -0.838. For GGAGCUGCUGAACUGUAGUTT against Leprotl1 the value was inactive: 0.407. In the case of GGCUUUAUGAGAGAGAUGATT against Cryga it was inactive: -0.465; in that of GGGACUGAACCCUCUCAAATT against Lsp1, inactive: 0.915; in that of GGCUAGAUGACAACCGCAUTT against Flrt1, inactive: 1.13.

Take GCAAGAAACAUUAGCGAAUTT against Dapk1: the z-score was inactive: 1.01.

GGAUUCUUGAGCAGAUAGCTT against Gbp3: the z-score was inactive: 0.187. On to GGGCUUUAAUACUGAGAAGTT against Arl4d, for which the z-score is inactive: 1.21. In the case of GGACGGCAAGUCUUAUGUGTT against Rp1 it was inactive: -0.0566. In the case of GGUUGCUCAAGAAACAGACTT against Rad50 it was inactive: -1.18. In the case of GGAAGAAAGAGUGUAUCAATT against Idi2 it was inactive: 0.487; in that of GGAAACUGGUAACUGAUGATT against Acp1, inactive: -0.822. GGAAGGACACACAUCCACUTT against Trpt1: the z-score was inactive: -0.584. On to CGAGAGUCAGCUAUUAAUGTT against Stoml2, for which the z-score was inactive: -1.16. In the case of CCCUCAUAACUAAUGCUGUTT against Pip5kl1 it was inactive: -0.276; in that of GGUCUGAUCAAGGCUGCCATT against Trpm1, inactive: -0.588; in that of GAAGCUUUGUGAUGGAUUATT against Ccl4, inactive: 1.41.

Consider GCUGCACUAUAGCAUCUGUTT against Fam135a, for which the z-score is inactive: 0.168. In the case of GGAGAUUCAGAAGCACAACTT against Fads2, the z-score was inactive: 1.57. For GGGACAUUGCAUUGUGAUCTT against Hspa1a the value was inactive: 0.757; for GGCAAAAAUACGUUCUAUATT against Slc35a3, inactive: 0.873. In the case of CCAAACACAUUUUAUUCCATT against Slamf7 it was inactive: 0.74. In the case of GGCCAUAAUCAAUCCUACCTT against Macroh2a1 it was inactive: 0.29; in that of GGAAGAGAUAGCUUGAUUUTT against Xrcc6, inactive: -1.36. On to GGGUUCCCUGAAAUGUUAGTT against Atic, for which the z-score is inactive: -0.754. In the case of GGCCUUACAGAGGAAUAUCTT against Gid4 it was inactive: -1.18.

Turning to GCAUGGAUAGAUAAUUCAATT against Atp5a1, the z-score is inactive: 1.28. Take GGCAAUGUCUUCUCCAAUATT against Dedd: the z-score is inactive: -0.652. For GGUCCUAGUUAAUUUCACUTT against Ipmk the value was inactive: -0.121; for CUCAAUGGGAGCCACUUUUTT against Fam169b, inactive: -1.45.

“GGACAUAGAGAAAACAUCUTT against 4933430I17Rik”: the z-score was inactive: -0.0638. In the case of GAAGCUCAACAACCAGUAUTT against Cited2 it was inactive: -0.0282; in that of GGGCUAAAGAAACAAUCCCTT against Ccr10, inactive: 0.743. Regarding GGGUGUUUUUAAGUGUCCCTT against Zfp574, the z-score is inactive: 0.475. For GCCCAGUGUAUAUGCUACUTT against Pirb the value was inactive: 0.403; for GGUCAACCCAUUGUAUAAGTT against Socs5, inactive: -0.263; for GGAGGGUCUCUAAUCUAUGTT against Slc38a4, inactive: 1.21. With CGAGCCUAGAAAGAGUUGATT against Lrrn4, the z-score is inactive: 0.646. In the case of GGCUGUGGAUUAAAUUAUCTT against Prkd3 it was inactive: -0.0472. As to GCGGUGAACUACCAUUACCTT against Thnsl2, the z-score was inactive: 1.49. Consider GCCACUGUUUGAUCUGAAATT against Fhod1, for which the z-score is inactive: 0.943.

On to GGAUCUGAAAGAUUAGAUUTT against Slc7a15, for which the z-score was inactive: -0.292. Consider GCUUCACAUGAAGCAACCUTT against Fam149b, for which the z-score is inactive: -0.102. Consider GGAAACAGGUCUGUCCCAATT against Ankle1, for which the z-score is active: -2.22. For GGAUGUUCUCAAACUACAATT against Kdm1b the value was inactive: 0.702; for GGUUAUUACCCAGUUCACGTT against Pramel1, inactive: -0.668; for CCGAGCGAGACAAAUGGAGTT against Ing2, inactive: 0.308. On to GGCAGGUUUAACUUUAAUGTT against Cacna1e, for which the z-score was active: 3.59. With CCAAGAUGUGAAAUUCACCTT against Efnb2, the z-score is inactive: 0.414. For GCAUAUGGCACCACAUUGUTT against Psg25 the value was inactive: 0.0646; for CCUUAGAAACACUCUUAUUTT against Lrrc66, inactive: -0.337. For the sequence GGUGGAUUUUGAAACUAUUTT against Pcdhb17, the z-score was inactive: 1.11. In the case of GGGUGCCCUUUGUCAUGUATT against Rapgef3 it was inactive: -1.16. As for GGCCAAAGGCAUCAGGCAUTT against Gsto2, the z-score is inactive: -1.7. For GGUGGUACUUACUCAAAAUTT against Fgg the value was inactive: 1.05.
